Test results from the supplement of paper PMC10849652.
The list shows a part of the results.

Protein sequences, listed by entry. Tags and fused reporters are not part of them. Lines headed by an entry give the natural chain unless they say otherwise; changes in a name come on top.
UniProt Q00013: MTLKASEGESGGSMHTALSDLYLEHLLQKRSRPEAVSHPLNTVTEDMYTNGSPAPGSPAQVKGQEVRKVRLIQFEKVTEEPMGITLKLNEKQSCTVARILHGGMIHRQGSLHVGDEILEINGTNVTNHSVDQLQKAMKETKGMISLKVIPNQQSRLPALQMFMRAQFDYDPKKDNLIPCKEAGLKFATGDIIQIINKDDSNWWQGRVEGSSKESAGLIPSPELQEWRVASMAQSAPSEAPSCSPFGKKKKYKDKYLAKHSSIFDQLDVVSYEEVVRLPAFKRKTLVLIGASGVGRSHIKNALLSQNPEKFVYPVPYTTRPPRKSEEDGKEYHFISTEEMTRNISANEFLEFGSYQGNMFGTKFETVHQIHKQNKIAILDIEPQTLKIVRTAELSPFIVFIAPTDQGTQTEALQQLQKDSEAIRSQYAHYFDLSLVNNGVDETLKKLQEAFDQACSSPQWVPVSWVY
UniProt O95396: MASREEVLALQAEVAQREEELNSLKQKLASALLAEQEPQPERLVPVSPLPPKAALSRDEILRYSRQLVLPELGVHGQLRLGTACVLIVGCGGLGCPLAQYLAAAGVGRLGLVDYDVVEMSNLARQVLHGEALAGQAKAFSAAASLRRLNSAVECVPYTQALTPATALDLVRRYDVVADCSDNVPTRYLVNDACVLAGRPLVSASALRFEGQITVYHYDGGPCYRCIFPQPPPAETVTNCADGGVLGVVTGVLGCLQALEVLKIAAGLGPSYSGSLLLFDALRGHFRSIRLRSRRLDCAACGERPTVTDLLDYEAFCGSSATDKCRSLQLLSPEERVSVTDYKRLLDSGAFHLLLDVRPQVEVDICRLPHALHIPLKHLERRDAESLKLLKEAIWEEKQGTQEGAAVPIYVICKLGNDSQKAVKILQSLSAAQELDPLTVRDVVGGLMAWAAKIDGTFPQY
UniProt Q8N4C8: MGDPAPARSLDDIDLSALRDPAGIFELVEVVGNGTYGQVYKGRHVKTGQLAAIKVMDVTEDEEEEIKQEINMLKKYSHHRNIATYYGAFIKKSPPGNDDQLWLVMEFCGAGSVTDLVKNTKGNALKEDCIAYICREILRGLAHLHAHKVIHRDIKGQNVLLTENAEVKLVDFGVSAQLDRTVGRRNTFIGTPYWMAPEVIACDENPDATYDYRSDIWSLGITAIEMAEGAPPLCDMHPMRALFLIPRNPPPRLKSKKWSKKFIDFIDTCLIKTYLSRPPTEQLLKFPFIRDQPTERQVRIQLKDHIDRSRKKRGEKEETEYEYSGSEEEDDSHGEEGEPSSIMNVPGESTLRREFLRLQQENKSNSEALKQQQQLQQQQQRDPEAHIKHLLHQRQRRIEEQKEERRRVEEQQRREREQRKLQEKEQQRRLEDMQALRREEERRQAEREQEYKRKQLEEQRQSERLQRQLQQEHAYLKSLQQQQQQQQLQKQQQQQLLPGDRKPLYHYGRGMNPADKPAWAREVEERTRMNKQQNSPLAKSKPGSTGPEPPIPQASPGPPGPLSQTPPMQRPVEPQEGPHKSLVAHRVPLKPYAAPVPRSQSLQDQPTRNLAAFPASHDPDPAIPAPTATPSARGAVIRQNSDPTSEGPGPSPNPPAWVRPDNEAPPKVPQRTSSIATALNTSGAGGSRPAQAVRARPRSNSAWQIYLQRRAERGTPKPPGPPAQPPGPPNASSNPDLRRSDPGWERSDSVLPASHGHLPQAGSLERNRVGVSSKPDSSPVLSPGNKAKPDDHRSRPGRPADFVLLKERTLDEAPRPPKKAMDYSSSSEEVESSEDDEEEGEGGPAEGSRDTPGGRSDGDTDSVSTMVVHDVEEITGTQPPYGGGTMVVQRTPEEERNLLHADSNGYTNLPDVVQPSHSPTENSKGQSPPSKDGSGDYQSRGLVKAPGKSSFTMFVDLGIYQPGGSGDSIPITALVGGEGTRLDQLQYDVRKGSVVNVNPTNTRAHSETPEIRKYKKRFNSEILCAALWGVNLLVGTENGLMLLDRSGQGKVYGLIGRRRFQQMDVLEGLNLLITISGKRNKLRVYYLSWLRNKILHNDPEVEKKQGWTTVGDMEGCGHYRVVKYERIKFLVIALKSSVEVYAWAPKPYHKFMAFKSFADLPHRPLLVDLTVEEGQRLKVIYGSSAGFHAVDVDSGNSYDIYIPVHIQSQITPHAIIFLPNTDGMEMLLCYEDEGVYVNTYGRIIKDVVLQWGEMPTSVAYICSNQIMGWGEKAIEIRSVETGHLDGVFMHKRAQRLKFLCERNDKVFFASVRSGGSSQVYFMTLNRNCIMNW
UniProt P14174: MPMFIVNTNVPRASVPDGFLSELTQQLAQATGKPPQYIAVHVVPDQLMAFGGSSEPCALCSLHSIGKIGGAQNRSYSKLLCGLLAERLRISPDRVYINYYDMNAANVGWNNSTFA
UniProt Q9H000: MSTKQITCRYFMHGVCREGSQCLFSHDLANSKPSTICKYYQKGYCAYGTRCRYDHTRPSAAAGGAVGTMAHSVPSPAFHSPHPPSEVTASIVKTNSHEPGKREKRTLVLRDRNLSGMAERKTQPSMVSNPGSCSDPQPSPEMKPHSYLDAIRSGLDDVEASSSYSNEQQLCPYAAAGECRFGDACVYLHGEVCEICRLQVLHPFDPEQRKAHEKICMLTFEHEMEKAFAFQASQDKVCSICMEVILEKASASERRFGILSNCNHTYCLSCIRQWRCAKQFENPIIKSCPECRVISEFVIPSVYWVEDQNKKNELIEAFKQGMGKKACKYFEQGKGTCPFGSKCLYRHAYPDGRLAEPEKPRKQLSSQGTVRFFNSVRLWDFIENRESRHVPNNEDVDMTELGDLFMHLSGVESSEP
UniProt Q9BRT3: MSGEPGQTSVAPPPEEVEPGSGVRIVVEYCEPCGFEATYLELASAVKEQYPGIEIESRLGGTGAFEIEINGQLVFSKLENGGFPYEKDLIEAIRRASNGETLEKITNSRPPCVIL
UniProt Q8WV92, whole entry, looked up: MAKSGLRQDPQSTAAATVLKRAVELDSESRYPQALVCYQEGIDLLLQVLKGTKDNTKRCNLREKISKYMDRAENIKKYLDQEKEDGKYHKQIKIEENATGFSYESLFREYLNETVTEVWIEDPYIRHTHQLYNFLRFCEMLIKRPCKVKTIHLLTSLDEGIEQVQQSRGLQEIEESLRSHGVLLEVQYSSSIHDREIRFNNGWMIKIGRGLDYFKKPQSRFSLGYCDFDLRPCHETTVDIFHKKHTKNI
UniProt Q9NQG6: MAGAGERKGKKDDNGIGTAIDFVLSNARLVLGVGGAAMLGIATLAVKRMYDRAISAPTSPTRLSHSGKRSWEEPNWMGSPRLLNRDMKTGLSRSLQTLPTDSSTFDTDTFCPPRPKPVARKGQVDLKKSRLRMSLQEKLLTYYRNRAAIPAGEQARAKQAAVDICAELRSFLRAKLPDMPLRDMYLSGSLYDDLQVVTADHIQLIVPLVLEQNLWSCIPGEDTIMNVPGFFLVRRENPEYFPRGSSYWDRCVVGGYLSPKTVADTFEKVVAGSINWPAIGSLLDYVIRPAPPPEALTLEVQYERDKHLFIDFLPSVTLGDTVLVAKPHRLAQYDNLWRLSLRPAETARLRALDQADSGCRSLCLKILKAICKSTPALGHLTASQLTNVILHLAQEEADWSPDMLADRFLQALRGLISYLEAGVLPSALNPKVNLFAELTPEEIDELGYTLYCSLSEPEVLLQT
UniProt Q9BPX6: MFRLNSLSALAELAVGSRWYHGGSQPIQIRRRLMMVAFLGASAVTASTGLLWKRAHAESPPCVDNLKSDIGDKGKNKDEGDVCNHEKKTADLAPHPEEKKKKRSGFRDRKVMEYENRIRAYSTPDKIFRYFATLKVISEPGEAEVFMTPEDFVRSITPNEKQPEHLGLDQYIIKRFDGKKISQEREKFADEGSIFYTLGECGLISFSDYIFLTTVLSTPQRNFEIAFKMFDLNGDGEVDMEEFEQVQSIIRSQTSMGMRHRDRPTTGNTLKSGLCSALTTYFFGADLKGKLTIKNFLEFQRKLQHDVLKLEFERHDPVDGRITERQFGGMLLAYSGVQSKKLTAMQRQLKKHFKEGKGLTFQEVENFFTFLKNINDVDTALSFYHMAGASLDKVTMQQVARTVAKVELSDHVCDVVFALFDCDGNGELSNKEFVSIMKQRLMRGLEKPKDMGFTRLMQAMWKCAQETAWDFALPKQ
UniProt P39210: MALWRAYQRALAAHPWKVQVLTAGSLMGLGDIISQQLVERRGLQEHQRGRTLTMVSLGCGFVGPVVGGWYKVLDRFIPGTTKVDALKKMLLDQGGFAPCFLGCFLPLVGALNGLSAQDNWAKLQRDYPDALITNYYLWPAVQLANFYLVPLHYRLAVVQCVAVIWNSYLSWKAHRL
UniProt Q9BWT6: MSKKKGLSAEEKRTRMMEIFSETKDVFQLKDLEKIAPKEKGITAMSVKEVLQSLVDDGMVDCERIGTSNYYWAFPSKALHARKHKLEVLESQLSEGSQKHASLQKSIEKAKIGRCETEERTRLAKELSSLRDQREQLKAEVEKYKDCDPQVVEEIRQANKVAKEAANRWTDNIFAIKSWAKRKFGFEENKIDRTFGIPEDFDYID
UniProt Q9NYP9: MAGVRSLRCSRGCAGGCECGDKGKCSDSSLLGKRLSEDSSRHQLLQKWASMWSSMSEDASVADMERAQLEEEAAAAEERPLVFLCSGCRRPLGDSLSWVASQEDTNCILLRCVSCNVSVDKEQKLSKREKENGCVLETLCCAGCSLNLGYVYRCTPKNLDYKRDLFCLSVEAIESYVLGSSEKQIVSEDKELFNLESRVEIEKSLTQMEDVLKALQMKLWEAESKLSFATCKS
UniProt Q9BVC4, whole entry, looked up: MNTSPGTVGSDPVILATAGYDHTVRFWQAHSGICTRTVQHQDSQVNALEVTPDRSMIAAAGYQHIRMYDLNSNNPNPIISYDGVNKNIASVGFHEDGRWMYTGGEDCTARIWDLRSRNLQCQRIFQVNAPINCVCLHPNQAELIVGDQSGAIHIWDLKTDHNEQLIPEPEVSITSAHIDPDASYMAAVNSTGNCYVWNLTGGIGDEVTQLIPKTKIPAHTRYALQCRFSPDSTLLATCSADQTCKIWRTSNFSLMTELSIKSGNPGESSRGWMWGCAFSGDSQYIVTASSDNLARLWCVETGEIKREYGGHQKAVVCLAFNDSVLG
UniProt Q9BUB5: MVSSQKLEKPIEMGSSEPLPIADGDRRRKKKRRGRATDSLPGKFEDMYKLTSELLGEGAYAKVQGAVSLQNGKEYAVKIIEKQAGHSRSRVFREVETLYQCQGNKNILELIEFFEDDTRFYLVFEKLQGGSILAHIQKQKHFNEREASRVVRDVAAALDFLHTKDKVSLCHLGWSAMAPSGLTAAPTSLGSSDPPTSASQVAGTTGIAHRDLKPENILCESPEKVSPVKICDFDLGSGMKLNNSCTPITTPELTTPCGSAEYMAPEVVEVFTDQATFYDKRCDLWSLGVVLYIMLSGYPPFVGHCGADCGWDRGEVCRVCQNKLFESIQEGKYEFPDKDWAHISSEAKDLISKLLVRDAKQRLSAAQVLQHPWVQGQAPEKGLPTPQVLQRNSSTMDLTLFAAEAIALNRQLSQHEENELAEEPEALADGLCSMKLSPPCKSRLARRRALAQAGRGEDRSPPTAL
UniProt Q9HCE1: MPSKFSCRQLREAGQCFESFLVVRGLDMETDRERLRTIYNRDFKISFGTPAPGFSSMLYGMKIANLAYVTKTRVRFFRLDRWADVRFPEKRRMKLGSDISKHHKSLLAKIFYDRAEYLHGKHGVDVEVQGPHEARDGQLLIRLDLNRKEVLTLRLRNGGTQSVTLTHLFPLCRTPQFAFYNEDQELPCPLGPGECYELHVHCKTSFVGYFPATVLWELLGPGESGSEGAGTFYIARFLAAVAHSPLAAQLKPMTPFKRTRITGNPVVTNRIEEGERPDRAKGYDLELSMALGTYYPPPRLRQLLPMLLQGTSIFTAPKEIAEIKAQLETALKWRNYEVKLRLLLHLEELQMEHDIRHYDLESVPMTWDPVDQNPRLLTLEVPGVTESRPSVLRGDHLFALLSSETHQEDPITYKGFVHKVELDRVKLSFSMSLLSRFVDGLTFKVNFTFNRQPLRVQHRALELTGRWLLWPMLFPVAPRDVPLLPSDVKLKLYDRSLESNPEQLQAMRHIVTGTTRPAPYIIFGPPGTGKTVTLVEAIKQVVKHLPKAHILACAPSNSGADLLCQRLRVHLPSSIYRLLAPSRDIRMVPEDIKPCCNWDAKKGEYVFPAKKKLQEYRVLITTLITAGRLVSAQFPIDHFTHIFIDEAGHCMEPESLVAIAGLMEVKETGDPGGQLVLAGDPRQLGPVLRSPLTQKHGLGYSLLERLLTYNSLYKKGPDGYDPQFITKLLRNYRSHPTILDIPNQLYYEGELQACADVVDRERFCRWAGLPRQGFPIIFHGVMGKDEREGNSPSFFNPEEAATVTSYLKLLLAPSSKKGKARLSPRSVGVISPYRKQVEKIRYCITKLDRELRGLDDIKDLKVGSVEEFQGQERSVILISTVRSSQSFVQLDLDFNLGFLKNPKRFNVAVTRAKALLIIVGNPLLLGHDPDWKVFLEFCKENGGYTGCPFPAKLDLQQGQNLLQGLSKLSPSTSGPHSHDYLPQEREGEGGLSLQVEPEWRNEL

What follows are targets tested with CC(=O)c1cnc2ccc(-c3cc(Cl)c(O)c(Cl)c3)nc2c1N[C@H]1CC[C@H](CN(C)C)CC1 (assay: log2 fold change, soluble protein after heating vs DMSO (PISA); higher = thermal stabilisation; K562 cells, 10 uM, 30 min; active = over 0.2 and 3.5 SD of the protein, either way, in both replicates (recomputed)).
Procedure, shortened: (§1)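 Thermal stability values are relative to control samples and come from duplicates. They are expressed as log2 fold changes. For measurement, K562 cells (2×10^6 cells/mL) received 10 μM compound for 30 min, and aliquots were heated for 3 min over 48°C-58°C, pooled, and extracted at 4°C in PBS with 0.5% NP-40. Soluble protein, the supernatant after 21,000xg for 90 min, was quantified by TMTpro 16plex LC-MS/MS with equalised channel sums.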
With MPP1 (UniProt Q00013) the log2 fold change was inactive: -0.071.
In the case of MICU2 (UniProt Q8IYU8), the log2 fold change is reported as inactive: -0.026.
With MICOS13 (UniProt Q5XKP0) the log2 fold change was inactive: -0.022.
With MIER1 isoform 12 (UniProt Q8N108) the log2 fold change was inactive: -0.035.
For MPHOSPH10 (UniProt O00566), the log2 fold change was inactive: -0.064.
For MOCS3 (UniProt O95396), the log2 fold change was inactive: -0.098.
MINK1 (UniProt Q8N4C8) was tested, and the log2 fold change was active: -0.715.
In the case of MIF (UniProt P14174), the log2 fold change is reported as inactive: -0.014.
In the case of MPDU1 (UniProt O75352), the log2 fold change is reported as inactive: -0.049.
With MORC3 (UniProt Q14149) the log2 fold change was inactive: 0.023.
MKRN2 (UniProt Q9H000) was tested, and the log2 fold change was inactive: -0.137.
With MRPL46 (UniProt Q9H2W6) the log2 fold change was inactive: 0.077.
MIEN1 (UniProt Q9BRT3) was tested, and the log2 fold change was inactive: -0.051.
In the case of MRPL47 (UniProt Q9HD33), the log2 fold change is reported as inactive: 0.003.
In the case of MON2 isoform 5 (UniProt Q7Z3U7), the log2 fold change is reported as inactive: -0.005.
For MRPL34 (UniProt Q9BQ48), the log2 fold change was inactive: 0.092.
In the case of MRPL55 isoform 2 (UniProt Q7Z7F7), the log2 fold change is reported as inactive: 0.11.
For MLX (UniProt Q9UH92), the log2 fold change was inactive: -0.132.
MRPL39 (UniProt Q9NYK5) was tested, and the log2 fold change was inactive: 0.03.
MRPL50 (UniProt Q8N5N7) was tested, and the log2 fold change was inactive: 0.036.
With MITD1 (UniProt Q8WV92) the log2 fold change was inactive: 0.
In the case of MIEF1 (UniProt Q9NQG6), the log2 fold change is reported as inactive: -0.016.
For MICU1 isoform 3 (UniProt Q9BPX6), the log2 fold change was inactive: -0.025.
In the case of MON1B (UniProt Q7L1V2), the log2 fold change is reported as inactive: -0.013.
In the case of MPV17 (UniProt P39210), the log2 fold change is reported as inactive: -0.038.
In the case of MIS12 (UniProt Q9H081), the log2 fold change is reported as inactive: -0.025.
In the case of MND1 (UniProt Q9BWT6), the log2 fold change is reported as inactive: -0.053.
With MIS18A (UniProt Q9NYP9) the log2 fold change was inactive: -0.004.
With MLST8 (UniProt Q9BVC4) the log2 fold change was inactive: 0.099.
In the case of MNAT1 (UniProt P51948), the log2 fold change is reported as active: -0.221.
With MORF4L2 (UniProt Q15014) the log2 fold change was inactive: 0.047.
In the case of MIEF1 (UniProt L0R8F8), the log2 fold change is reported as inactive: 0.022.
In the case of MKNK1 (UniProt Q9BUB5), the log2 fold change is reported as inactive: 0.059.
With MOV10 (UniProt Q9HCE1) the log2 fold change was inactive: 0.069.
MRPL57 (UniProt Q9BQC6) was tested, and the log2 fold change was inactive: 0.134.
With MMS19 isoform 8 (UniProt Q96T76) the log2 fold change was inactive: -0.028.
MPRIP isoform 2 (UniProt Q6WCQ1) was tested, and the log2 fold change was inactive: -0.146.
With MICAL3 (UniProt Q7RTP6) the log2 fold change was inactive: -0.032.

These targets were tested with CC(C)(C)Cn1c(N)nc2ccc(-c3[nH]c(C(C)(C)C)nc3-c3ccc(F)cc3)nc21 [ralimetinib] in the same assay as above.
Procedure, shortened: as §1
For MPP1 (UniProt Q00013), the log2 fold change was inactive: 0.075.
In the case of MICU2 (UniProt Q8IYU8), the log2 fold change is reported as inactive: -0.05.
For MICOS13 (UniProt Q5XKP0), the log2 fold change was inactive: -0.077.
MIER1 isoform 12 (UniProt Q8N108) was tested, and the log2 fold change was inactive: 0.033.
For MPHOSPH10 (UniProt O00566), the log2 fold change was inactive: 0.144.
MINK1 (UniProt Q8N4C8) was tested, and the log2 fold change was inactive: -0.081.
In the case of MIF (UniProt P14174), the log2 fold change is reported as inactive: 0.071.
With MPDU1 (UniProt O75352) the log2 fold change was inactive: -0.254.
With MORC3 (UniProt Q14149) the log2 fold change was inactive: -0.024.
For MKRN2 (UniProt Q9H000), the log2 fold change was inactive: 0.034.
In the case of MRPL46 (UniProt Q9H2W6), the log2 fold change is reported as inactive: 0.029.
With MIEN1 (UniProt Q9BRT3) the log2 fold change was inactive: -0.075.
In the case of MRPL47 (UniProt Q9HD33), the log2 fold change is reported as inactive: 0.056.
MON2 isoform 5 (UniProt Q7Z3U7) was tested, and the log2 fold change was inactive: 0.097.
For MRPL34 (UniProt Q9BQ48), the log2 fold change was inactive: 0.164.
With MRPL55 isoform 2 (UniProt Q7Z7F7) the log2 fold change was inactive: 0.085.
MLX (UniProt Q9UH92) was tested, and the log2 fold change was inactive: 0.077.
In the case of MRPL39 (UniProt Q9NYK5), the log2 fold change is reported as inactive: 0.113.
With MRPL50 (UniProt Q8N5N7) the log2 fold change was inactive: 0.315.
For MITD1 (UniProt Q8WV92), the log2 fold change was inactive: -0.002.
MIEF1 (UniProt Q9NQG6) was tested, and the log2 fold change was inactive: -0.07.
MICU1 isoform 3 (UniProt Q9BPX6) was tested, and the log2 fold change was inactive: 0.007.
In the case of MON1B (UniProt Q7L1V2), the log2 fold change is reported as inactive: 0.095.
For MPV17 (UniProt P39210), the log2 fold change was inactive: 0.008.
With MIS12 (UniProt Q9H081) the log2 fold change was inactive: -0.004.
MND1 (UniProt Q9BWT6) was tested, and the log2 fold change was inactive: 0.052.
MIS18A (UniProt Q9NYP9) was tested, and the log2 fold change was inactive: -0.032.
For MNAT1 (UniProt P51948), the log2 fold change was inactive: -0.044.
With MORF4L2 (UniProt Q15014) the log2 fold change was inactive: -0.01.
With MIEF1 (UniProt L0R8F8) the log2 fold change was inactive: -0.004.
For MKNK1 (UniProt Q9BUB5), the log2 fold change was inactive: 0.117.
With MOV10 (UniProt Q9HCE1) the log2 fold change was inactive: 0.12.
With MMS19 isoform 8 (UniProt Q96T76) the log2 fold change was inactive: 0.078.
In the case of MPRIP isoform 2 (UniProt Q6WCQ1), the log2 fold change is reported as inactive: 0.014.
For MICAL3 (UniProt Q7RTP6), the log2 fold change was inactive: -0.145.
